Data reported in the supplement of paper PMC10331698.
± gives the standard deviation of the averaged measurements. Most entries show no effect beyond the scatter of the controls.

Legend:
Assay in all cases: level (log10 ratio to DMSO vehicle control); higher = higher biomarker level / cell amount than vehicle control
[1] = compound: C=C(C)C(=O)OCC(F)(F)C(F)(F)C(F)(F)C(F)(F)C(F)(F)C(F)(F)C(F)(F)F; conditions: in DMSO
Protocol: (§1)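 BioMAP Diversity Plus panel of 12 human primary cell co-culture systems (3C, 4H, LPS, SAg, BT, BF4T, BE3C, CASM3C, HDF3CGF, KF3CT, MyoF, Mphg). Compounds were added 1 h before stimulation and left for 24 h (MyoF 48 h; BT 72 h for soluble read-outs or 6 d for IgG). Biomarkers were read by ELISA, cytotoxicity by SRB, PBMC viability and proliferation by Alamar Blue. Each well value was divided by the mean of 8 DMSO control wells on the same plate and log10 transformed; duplicate blinded samples were tested at 4 concentrations.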

[2] = compound: C=CC(=O)OCC(F)(F)C(F)(F)C(F)(F)C(F)(F)C(F)(F)C(F)(F)C(F)(F)F [1H,1H-Perfluorooctyl acrylate]; conditions: 2200 nM; in DMSO
Protocol: as §1

[3] = compound: C=CC(F)(F)C(F)(F)C(F)(F)C(F)(F)C(F)(F)C(F)(F)C(F)(F)C(F)(F)C=C [1,8-Divinylperfluorooctane]; conditions: in DMSO
Protocol: as §1

[4] = compound: COC(=O)C(F)(F)C(F)(F)OC(F)(C(F)(F)F)C(F)(F)OC(F)=C(F)F [Methyl perfluoro(3-(1-ethenyloxypropan-2-yloxy)propanoate)]; conditions: in DMSO
Protocol: as §1

[5] = compound: CO[Si](C)(CCC(F)(F)C(F)(F)C(F)(F)C(F)(F)C(F)(F)C(F)(F)F)OC [Dimethoxymethyl((perfluorohexyl)ethyl)silane]; conditions: in DMSO
Protocol: as §1

[6] = compound: FC(F)(F)C(F)(F)C(F)(F)CC1CO1 [1H,1H-Heptafluorobutyl epoxide]; conditions: 2200 nM; in DMSO
Protocol: as §1

Heptafluorobutyl iodide = compound: FC(F)(F)C(F)(F)C(F)(F)CI [Heptafluorobutyl iodide]; conditions: 2200 nM; in DMSO
Protocol: as §1

[7] = compound: NC(=O)C(F)(F)C(F)(F)C(F)(F)C(F)F; conditions: in DMSO
Protocol: as §1

Pentafluoropropionamide = compound: NC(=O)C(F)(F)C(F)(F)F [Pentafluoropropionamide]; conditions: 2200 nM; in DMSO
Protocol: as §1

[8] = compound: NS(=O)(=O)C(F)(F)C(F)(F)C(F)(F)C(F)(F)C(F)(F)C(F)(F)C(F)(F)C(F)(F)F [Perfluorooctanesulfonamide]; conditions: in DMSO
Protocol: as §1

[9] = compound: O=C(O)C(F)(F)C(F)(F)C(F)F [4H-Perfluorobutanoic acid]; conditions: in DMSO
Protocol: as §1

[10] = compound: O=P(O)(O)CCC(F)(F)C(F)(F)C(F)(F)C(F)(F)C(F)(F)C(F)(F)F [2-(Perfluorohexyl)ethylphosphonic acid]; conditions: 2200 nM; in DMSO
Protocol: as §1

[11] = compound: O=S(=O)(F)C(F)(F)C(F)(F)C(F)(F)C(F)(F)C(F)(F)C(F)(F)C(F)(F)C(F)(F)F [Perfluorooctanesulfonyl fluoride]; conditions: 2200 nM; in DMSO
Protocol: as §1

[12] = compound: O=S(=O)(O)C(F)(F)C(F)(F)C(F)(F)C(F)(F)C(F)(F)C(F)(F)C(F)(F)C(F)(F)F [Perfluorooctanesulfonic acid]; conditions: 2200 nM; in DMSO
Protocol: as §1

[13] = compound: O=S(=O)(O)C(F)(F)C(F)(F)C(F)(F)C(F)(F)C(F)(F)C(F)(F)C(F)(F)C(F)(F)F [Potassium perfluorooctanesulfonate]; conditions: 2200 nM; in DMSO
Protocol: as §1

[14] = compound: O=S(=O)(OCC(F)(F)F)C(F)(F)C(F)(F)C(F)(F)C(F)(F)F [2,2,2-Trifluoroethyl perfluorobutanesulfonate]; conditions: 2200 nM; in DMSO
Protocol: as §1

[15] = compound: OCC(F)(F)C(F)(F)C(F)(F)C(F)(F)C(F)(F)C(F)F [1H,1H,7H-Dodecafluoro-1-heptanol]; conditions: 2200 nM; in DMSO
Protocol: as §1

[16] = compound: OCCCCC(F)(F)C(F)(F)C(F)(F)C(F)(F)F [4:4 Fluorotelomer alcohol]; conditions: 2200 nM; in DMSO
Protocol: as §1

Test System | level (log10) ([1]; 740 nM) | level (log10) ([1]; 2200 nM) | level (log10) [2] | level (log10) ([3]; 740 nM) | level (log10) ([3]; 2200 nM) | level (log10) ([4]; 740 nM) | level (log10) ([4]; 2200 nM) | level (log10) ([5]; 740 nM) | level (log10) ([5]; 2200 nM) | level (log10) [6] | level (log10) (Heptafluorobutyl iodide) | level (log10) ([7]; 2200 nM) | level (log10) ([7]; 6700 nM) | level (log10) ([7]; 20000 nM) | level (log10) ([7]; 60000 nM) | level (log10) (Pentafluoropropionamide) | level (log10) ([8]; 2200 nM) | level (log10) ([8]; 6700 nM) | level (log10) ([8]; 20000 nM) | level (log10) ([9]; 2200 nM) | level (log10) ([9]; 6700 nM) | level (log10) ([9]; 20000 nM) | level (log10) ([9]; 60000 nM) | level (log10) [10] | level (log10) [11] | level (log10) [12] | level (log10) [13] | level (log10) [14] | level (log10) [15] | level (log10) [16]
HDF3CGF:CXCL8/IL-8 | 0.006 ± 0.014 | 0.001 ± 0.0099 | 0 ± 0.011 | -0.0025 ± 0.0021 | -0.009 ± 0.016 | 0 ± 0.0071 | 0.012 ± 0.0099 | 0.008 | -0.0025 ± 0.0021 | 0.0065 ± 0.028 | 0.0005 ± 0.0035 | 0.0015 ± 0.00071 | -0.0085 ± 0.0035 | 0.0015 ± 0.0078 | 0.0045 ± 0.018 | -0.001 ± 0.0028 | 0.015 | 0.004 ± 0.0085 | -0.204 ± 0.11 | -0.001 ± 0.013 | 0.001 ± 0.0014 | 0.0025 ± 0.0078 | 0.0095 ± 0.023 | -0.0015 ± 0.019 | -0.002 ± 0.02 | 0.0005 ± 0.005 | 0.002 ± 0.0057 | 0.004 ± 0.0099 | 0.0025 ± 0.028 | 0.0015 ± 0.015
BE3C:PAI-I | 0.004 ± 0.0071 | 0.009 ± 0.027 | -0.039 ± 0.037 | -0.0045 ± 0.028 | -0.003 ± 0.0014 | -0.0515 ± 0.0064 | -0.0305 ± 0.0078 | 0.0135 ± 0.047 | -0.004 ± 0.02 | 0.0235 ± 0.03 | -0.023 ± 0.0057 | 0.0025 ± 0.022 | 0.0065 ± 0.0064 | -0.0055 ± 0.0035 | 0 ± 0.0028 | 0.005 ± 0.0085 | -0.0455 ± 0.033 | -0.194 ± 0.03 | -0.202 ± 0.016 | 0.0025 ± 0.011 | -0.0235 ± 0.025 | -0.014 ± 0.038 | -0.0175 ± 0.023 | -0.013 ± 0.024 | -0.0255 ± 0.00071 | 0.0075 ± 0.0092 | 0.0125 ± 0.028 | 0.0045 ± 0.013 | -0.001 ± 0.016 | -0.018 ± 0.0057
BF4T:MMP-1 | 0.006 ± 0.024 | 0.001 ± 0.0057 | 0.006 ± 0.0099 | 0.0065 ± 0.013 | -0.002 ± 0.0085 | 0.006 ± 0.016 | -0.002 ± 0.0042 | 0.015 ± 0.061 | -0.005 ± 0.047 | 0.0135 ± 0.0035 | 0.0065 ± 0.016 | 0.0055 ± 0.022 | 0.003 ± 0.0085 | -0.003 ± 0.0085 | 0.0075 ± 0.0035 | 0.005 ± 0.027 | 0.008 ± 0.03 | 0.003 ± 0.016 | 0.0075 ± 0.019 | -0.0025 ± 0.035 | -0.0075 ± 0.019 | 0 ± 0.034 | 0.006 ± 0.038 | 0.009 ± 0.024 | 0.009 ± 0.0014 | 0.0075 ± 0.0035 | 0.032 ± 0.03 | 0.0045 ± 0.0035 | 0.0195 ± 0.056 | 0.013 ± 0.018
CASM3C:M-CSF | 0 ± 0.076 | -0.022 ± 0.0071 | -0.0165 ± 0.00071 | 0.0155 ± 0.033 | -0.0265 ± 0.028 | 0.0065 ± 0.012 | -0.0115 ± 0.0021 | 0.0145 ± 0.044 | -0.012 ± 0.0099 | -0.003 ± 0.018 | 0.0025 ± 0.049 | 0.012 ± 0.05 | -0.0485 ± 0.021 | -0.0535 ± 0.046 | 0.019 ± 0.082 | 0.019 ± 0.028 | 0.037 ± 0.038 | 0.022 | 0.04 ± 0.0099 | 0.05 ± 0.023 | 0.004 ± 0.045 | -0.009 ± 0.016 | 0.059 ± 0.027 | 0.002 ± 0.02 | 0.0095 ± 0.0064 | 0.015 ± 0.045 | 0.0345 ± 0.079 | 0.008 ± 0.044 | 0.002 ± 0.03 | 0.0505 ± 0.025
MyoF:PAI-I | 0.011 ± 0.0071 | 0.0005 ± 0.0078 | 0.0075 ± 0.023 | -0.003 ± 0.014 | -0.0005 ± 0.013 | 0.012 ± 0.0042 | 0.0015 ± 0.0078 | 0.003 ± 0.016 | -0.005 ± 0.021 | -0.0005 ± 0.016 | -0.006 ± 0.0028 | -0.0145 ± 0.035 | -0.0125 ± 0.013 | -0.0125 ± 0.0064 | 0.005 ± 0.018 | 0.002 ± 0.0028 | 0.0065 ± 0.011 | 0.0135 ± 0.019 | 0.006 ± 0.0071 | -0.013 ± 0.0071 | -0.0105 ± 0.019 | -0.023 ± 0.023 | -0.0095 ± 0.011 | -0.0135 ± 0.022 | 0.0015 ± 0.0064 | 0.008 ± 0.014 | 0.0085 ± 0.0035 | -0.0095 ± 0.011 | 0.0005 ± 0.0035 | 0.0045 ± 0.013
3C:CD62E/E-Selectin | 0.004 ± 0.017 | -0.0165 ± 0.029 | 0.0115 ± 0.029 | 0.0135 ± 0.00071 | -0.012 ± 0.0057 | -0.0035 ± 0.032 | -0.017 ± 0.023 | -0.0105 ± 0.029 | -0.0065 ± 0.023 | -0.025 ± 0.025 | -0.01 ± 0.0057 | -0.013 ± 0.02 | -0.0055 ± 0.022 | -0.027 ± 0.0014 | -0.016 ± 0.018 | 0.0055 ± 0.013 | 0.023 ± 0.0042 | -0.006 ± 0.02 | 0.043 ± 0.011 | 0.0275 ± 0.005 | -0.024 | -0.0235 ± 0.0092 | 0.017 ± 0.03 | 0.0035 ± 0.022 | 0.0205 ± 0.012 | 0.0105 ± 0.0035 | 0.0005 ± 0.013 | -0.0175 ± 0.0064 | 0.005 ± 0.011 | -0.002 ± 0.042
LPS:CD69 | 0.0295 ± 0.064 | 0.0045 ± 0.097 | -0.0025 ± 0.026 | 0.002 ± 0.02 | -0.0105 ± 0.0064 | -0.0105 ± 0.005 | -0.0435 ± 0.012 | -0.0225 ± 0.059 | -0.031 ± 0.0028 | 0 ± 0.081 | -0.03 ± 0.025 | 0.017 ± 0.05 | 0.006 ± 0.027 | 0.021 ± 0.035 | 0.0225 ± 0.061 | -0.013 ± 0.034 | -0.002 ± 0.045 | -0.0475 ± 0.0064 | -0.13 | 0.0195 ± 0.063 | 0.024 ± 0.035 | 0.02 ± 0.034 | 0.028 ± 0.028 | -0.0005 ± 0.14 | 0.0075 ± 0.011 | -0.0095 ± 0.013 | -0.023 | 0.0485 ± 0.08 | -0.002 ± 0.088 | 0.0125 ± 0.022
